We go through ten molecules from ChEMBL document CHEMBL4513134, “CO-ADD screening of University of Queensland (Australia) compounds” (2021).

Broadly, the Inhibition is the change of the read-out against control, counted positive when it falls.

Each structure is given as a SMILES string. The list shows a part of the results. Potency and affinity values are given separately.

For this experiment, the system named is Pseudomonas aeruginosa. To be noted: Concentration 32 ug.mL-1; ASSAY_TEST Inhibition of Bacterial Growth; detection method Absorption (OD600); MEDIA CAMHB; plate type 384well; NBS; CORNING #3640; time 18 hr.
With `Cn1c([N+](=O)[O-])cnc1C(=O)N1CCCC1`, the Inhibition was found to be 0.93%.
In the case of `Cn1c([N+](=O)[O-])cnc1C(=O)NCc1ccc(OC(F)(F)F)cc1`, the Inhibition is given as 3.77%.
With `Cn1c([N+](=O)[O-])cnc1C(=O)N1CCOCC1`, the Inhibition turned out to be 2.73%.
As for `Cn1c([N+](=O)[O-])cnc1C(=O)NCc1cccc(OC(F)(F)F)c1`, the Inhibition was 0.64%.
In the case of `Cn1c([N+](=O)[O-])cnc1C(=O)NCc1ccc(F)cc1` it was 3.14%; in that of `Cn1c([N+](=O)[O-])cnc1C(=O)NCc1ccccn1.O=C(O)C(F)(F)F`, 3.74%.
Under `CC(NC(=O)c1ncc([N+](=O)[O-])n1C)c1ccc(F)cc1` (stereo not given) stands 0.55%.
Under `Cn1c([N+](=O)[O-])cnc1C(=O)NC1CC1` stands -8.74%; under `Cc1ccc(CCNC(=O)c2ncc([N+](=O)[O-])n2C)cc1`, 7.68%; under `CN(C)C(=O)c1ncc([N+](=O)[O-])n1C`, 3.82%.
